Test results as given in PubChem BioAssay AID493014 (National Center for Advancing Translational Sciences (NCATS), 2011).
Out of some 340,000 compounds screened, about 170 (0.05%) were called active. This list was built around the results that the source calls inconclusive (neither active nor inactive); the mix of calls is not that of the screen. Calls come from the whole dose curve; as a rule, active = well fitted inhibition curve with a large enough effect in the signal ratio, with a control signal flat (not every such curve was filed as active); inconclusive = small, poorly fitted or top-dose-only effect, or effect the other way, or a change in a side signal; inactive = flat fitted curve, though single readings scatter; the % refers to the signal ratio. Potencies beside an inconclusive call are fits to weak or partial responses and may not hold up.

Test: qHTS Assay to Find Inhibitors of Chronic Active B-Cell Receptor Signaling;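 for activity change, negative = inhibition: plate controls were basal doxycycline-induced cells for no effect and cells given 10 µM MG132 for full effect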
Details: ABC-DLBCL IkBa-CBG/CBR reporter, luminescence ratio (green luciferase fused to IkBa over red control in TMD8 lymphoma cells), 4 h; activity change, negative = inhibition: at 46.1 µM (top of the series) unless noted
How it was run: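 Doxycycline induced both beetle luciferases in TMD8 lymphoma cells; IKK-driven degradation limits the IkappaBalpha-fused green signal, while red luminescence normalises for cell number and nonspecific effects. Compounds tested up to 46 uM, 4 hrs.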
Potency is the fitted concentration of half-maximal effect.

| Compound | Potency | activity change, negative = inhibition |
| --- | --- | --- |
| c1ccc(-c2nc3ccccc3[nH]2)cc1 | inconclusive: 12.6 µM [falling, partial curve] | – |
| Cc1ccc(NC(=O)C(c2ccccc2)N2CCN(CC(=O)N3CCOCC3)CC2)cc1 (configuration not stated) | – | inconclusive: 1.68% |
| Nc1ccc(-c2nc3ncccc3o2)c(Cl)c1 | – | inconclusive: -1.83% |
| COc1ccc(OC)c(-n2nnnc2SCC(=O)O)c1 | – | inconclusive: -2.08% |
| Cc1ccc(Cn2nc(C)c(NC(=O)CCCn3nc([N+](=O)[O-])c(Cl)c3C)c2C)cc1 | – | inconclusive: -41% |
| O=C(Nc1nc(-c2ccccn2)cs1)c1ccc(Br)s1 | – | inconclusive: 19% |
| CC1(C(=O)O)CC(C)(C(=O)O)CC(C)(C(=O)O)C1 (configuration not stated) | – | inconclusive: 0.902% |
| COc1ccc(OCC(=O)N2CCN(S(=O)(=O)c3ccccc3[N+](=O)[O-])CC2)cc1 | – | inactive: -0.625% |
| CN(CC(=O)Nc1ccc(F)cc1)C(=O)c1ccc2ccccc2n1 | – | inconclusive: 8.6% |
| CC(C)OC(=O)C(C#N)c1nc2ccccc2nc1N1CCCC1 (configuration not stated) | – | inactive: 0.567% |
| Cc1nnc2c(SC(C)C)nc3ccccc3n12 | – | inactive: 4.72% |
| CCN1C(=O)[C@H]2[C@@H](c3ccc(-c4cccc(Cl)c4)cc3)N[C@@](C)(C(=O)OC)[C@H]2C1=O | – | inactive: -18.8% |
| O=C(Nc1ccc(Nc2ccccc2)cc1)C(Cl)(Cl)Cl | – | inconclusive: -0.0987% |
| CCNC1=C(Cl)C(=O)c2ccccc2C1=O | inconclusive: 4.11 µM [rising, full curve, poor fit] | – |
| S=c1[nH]nc(-c2ccco2)n1/N=C/C=C/c1ccco1 | – | inactive: 1.51% |
| COc1ccccc1Nc1ncc(C(=O)N2CCN(Cc3ccc(OC)c(OC)c3OC)CC2)c2ccccc12 | inconclusive: 1.41 µM [falling, full curve] | – |
| CC(=O)N1CCN(S(=O)(=O)c2cccc(C(=O)OCC(=O)N(CCC#N)c3ccc(F)cc3)c2)CC1 | – | inactive: 2.36% |
| Cc1ccc(-c2ccc(=O)n(CCC(=O)NCc3ccccn3)n2)cc1 | – | inconclusive: -1.37% |
| O=C(NC1CCCCC1)C(c1ccco1)N(C(=O)c1csnn1)c1cccc(Cl)c1 (configuration not stated) | – | inconclusive: -5.16% |
| Cc1nc(SCC(=O)Nc2nc3ccccc3s2)n[nH]1 | – | inconclusive: 3.46% |
| Cc1cc(C(C)(C)C)ccc1OCCCCN1CCCC1 | inconclusive: 29.1 µM [falling, single point] | – |

| Compound | Potency | activity change, negative = inhibition |
| --- | --- | --- |
| Cc1cc(C)c2nc(N3C(=O)C(O)=C(C(=O)c4ccco4)C3c3ccc(O)cc3)sc2c1 (configuration not stated) | inconclusive: 20.6 µM [falling, partial curve] | – |
| COC(=O)c1ccc(CSc2ccc3nnc(-c4cccc(F)c4)n3n2)o1 | – | inactive: -1.31% |
| CCn1c(SCc2ccc(C(=O)Nc3nccs3)cc2)nnc1-c1ccc(N)cc1 | – | inconclusive: 12.5% |
| CN(C)S(=O)(=O)N1CCN(S(=O)(=O)c2ccccc2)CC1 | – | inconclusive: 20.3% |
| O=C(c1ccco1)N1CCC(c2nc3c(nnn3Cc3ccccc3Cl)c(=O)[nH]2)CC1 | – | inactive: 1.34% |
| O=c1[nH]c(SCc2ccc(Cl)cc2)nc2ccsc12 | inconclusive: 15.8 µM [falling, partial curve] | – |
| COc1ccc(OC)c(-c2csc(NC(=O)COC(=O)C3(C)CC3(Cl)Cl)n2)c1 (configuration not stated) | – | inconclusive: -7.41% |
| COc1c(O)ccc2c1CN1CCc3cc4c(cc3C1C2)OCO4 (configuration not stated) | – | inconclusive: -38.3% |
| CN(C)/C=C/C(=O)c1cnc(-c2ccc(Cl)cc2)s1 | inconclusive: 35.5 µM [falling, single point] | – |
| Cc1ccc(SC[C@H](CC(C)C)N2CCN(C)CCC2=O)cc1 | – | inactive: 4.21% |
| COc1ccccc1NC(=S)NCc1ccco1 | inconclusive: 4.11 µM [falling, single point] | – |
| COC(=O)c1ccccc1NC1c2ccccc2C(=O)N1c1cccnc1 (configuration not stated) | inconclusive: 16.4 µM [falling, single point] | – |
| COc1ccc(OC)c2[nH]c(=O)c(CCNC(C)=O)cc12 | – | inactive: 8.72% |
| COc1cccc2[nH]c(C(=O)NN)c(N)c12 | – | inconclusive: 1.7% |
| COCCNC(=S)N/N=C(\C)c1cccc(C(F)(F)F)c1 | inconclusive: 35.5 µM [cytotoxic, single point] | – |
| COCCCN1C(=O)c2ccc(C(=O)NCCc3ccccc3)cc2C1=O | – | inactive: 0.498% |
| Nc1nc2c(ncn2C2C[C@H](O)[C@@H](CO)O2)c(=O)[nH]1 (some centres not stated) | – | inconclusive: 8.39% |
| Cn1cccc1/C=C1\CCC/C(=C\c2cccn2C)C1=O | inconclusive: 5.17 µM [falling, partial curve, poor fit] | – |
| CCCc1nn(C)c(C(=O)Nc2ccc(Cl)cc2)c1Cl | – | inconclusive: 4.26% |
| CC(C)NC(=S)N/N=C/c1ccc2c(c1)OCCO2 | – | inactive: -17.8% |
| CCOC(=O)c1ccc(-c2ccc(-c3cc(=O)oc4cc(OC)c(OC)c(OC)c34)cc2)cc1 | – | inactive: -2.07% |

| Compound | Potency | activity change, negative = inhibition |
| --- | --- | --- |
| COCc1nnc(NS(=O)(=O)c2c(C)cc(C)cc2C)s1 | inconclusive: 7.31 µM [falling, single point] | – |
| Cc1nc(SCc2ccccc2)c2oc3ccccc3c2n1 | – | inconclusive: -35.5% |
| Cc1cccc(NC(=S)N2CCN(c3ccccc3)CC2)c1 | – | inactive: 0.709% |
| O=C1CSc2ccc(C(=O)NCCc3ccc(Cl)cc3Cl)cc2N1 | – | inconclusive: -0.441% |
| CC(C)C(=O)Nc1ccc(Oc2ccc3c(c2)C(=O)NC3=O)cc1 | – | inconclusive: 3.32% |
| O=C(COC(=O)CCN1C(=O)C2CC=CCC2C1=O)Nc1ccc([N+](=O)[O-])cc1 (configuration not stated) | – | inactive: -5.81% |
| O=C(Cn1cnc2cc([N+](=O)[O-])ccc2c1=O)Nc1ccc(Br)cc1 | – | inconclusive: -0.0901% |
| Clc1nc2c(-c3ccccc3)nnn2c2ccccc12 | – | inconclusive: 179% |
| COc1ccc(C(=O)O)cc1S(=O)(=O)Nc1cccc(C(F)(F)F)c1 | – | inconclusive: -148% |
| N#Cc1cc(-c2ccccc2)c[nH]c1=O | – | inactive: 7.45% |
| CN(CC(O)COCc1ccccc1F)C1CCCCC1 (configuration not stated) | – | inconclusive: 8.59% |
| O=C(COc1ccc(Cl)cc1)NCc1nnc(SCC(=O)N2CCCc3ccccc32)o1 | – | inconclusive: -0.975% |
| COc1ccc(C(=O)Nc2ccc(C3CC3(Cl)Cl)cc2)cc1 (configuration not stated) | – | inconclusive: -19.3% |
| O=C(CSc1nc2ccccc2s1)N/N=C/c1ccc(C(=O)O)cc1 | inconclusive: 2.82 µM [falling, full curve] | – |
| CCn1c(SCC(=O)Nc2cccc(OC)c2)nc2ccccc2c1=O | – | inconclusive: -12.6% |
| C/C(=N\OC(=O)Nc1ccc(Cl)cc1)c1ncc(C(F)(F)F)cc1N1CCOCC1 | inconclusive: 1.3 µM [rising, full curve, poor fit] | – |
| COc1ccc(CCNc2nc(SCc3ccc(F)cc3)nc3ccccc23)cc1OC | inconclusive: 7.08 µM [falling, full curve, poor fit] | – |
| CCc1nn(CC(=O)N2CCN(c3cc(C)ccc3C)CC2)c(=O)c2cc3occc3n12 | – | inconclusive: -0.248% |
| Cc1nc(-c2ccc(S(=O)(=O)Nc3ccc(Br)cc3F)cc2)co1 | inconclusive: 0.794 µM [falling, partial curve] | – |
| CCCn1c(=O)c(C(=O)NCCc2ccccc2)c(O)c2ccccc21 | – | inactive: 9.5% |
| COc1ccc(CCNS(=O)(=O)c2ccc(Br)cc2)cc1 | – | inconclusive: 1.9% |

Structural class: the entries above containing bromine

| Compound | Potency | activity change, negative = inhibition |
| --- | --- | --- |
| O=C(Nc1nc(-c2ccccn2)cs1)c1ccc(Br)s1 | – | inconclusive: 19% |
| O=C(Cn1cnc2cc([N+](=O)[O-])ccc2c1=O)Nc1ccc(Br)cc1 | – | inconclusive: -0.0901% |
| Cc1nc(-c2ccc(S(=O)(=O)Nc3ccc(Br)cc3F)cc2)co1 | inconclusive: 0.794 µM [falling, partial curve] | – |
| COc1ccc(CCNS(=O)(=O)c2ccc(Br)cc2)cc1 | – | inconclusive: 1.9% |

(further entries)

| Compound | Potency | activity change, negative = inhibition |
| --- | --- | --- |
| Cc1cc(=O)[nH]c2nnc(SCC(=O)Nc3ccc(F)cc3F)n12 | – | inconclusive: 10.1% |
| Cc1cc(Nc2cccc(C(=O)O)c2)n2ncnc2n1 | – | inconclusive: -11.3% |
| N#Cc1c2n(c(=S)n(-c3ccc(F)cc3)c1=O)CCCCC2 | inconclusive: 3.55 µM [falling, full curve] | – |
| Cc1[nH]nc2c1C(c1ccsc1C)C(C#N)=C(N)O2 (configuration not stated) | – | inconclusive: -16.8% |
| Cc1ccc2c(Cl)c(C(=O)Nc3cc(C)on3)sc2c1 | inconclusive: 13 µM [rising, single point] | – |
| Cn1c(/C=N/NC(=O)c2ccccc2Br)nc2ccccc21 | inconclusive: 35.5 µM [falling, single point] | – |
| CC(=O)Nc1cccc(NC(=O)c2ccc3c(c2)CCN3S(=O)(=O)c2ccccc2)c1 | inconclusive: 15.8 µM [falling, single point] | – |
| CCOC(=O)COc1cccc2c(=O)n(CC(=O)NCc3ccccc3)ccc12 | inconclusive: 7.94 µM [falling, partial curve, poor fit] | – |
| COc1ccc(-c2cccc(NC(=O)c3ccc4c(c3)OCO4)c2)nn1 | inconclusive: 9.2 µM [falling, partial curve] | – |
| CCCSc1ccc(C(=O)Nc2ccc(Cl)cc2)cn1 | – | inconclusive: -9.86% |
| COc1ccccc1CCNC(=O)C(=O)NCC(c1cccs1)S(=O)(=O)c1ccc(F)cc1 (configuration not stated) | inconclusive: 6.31 µM [falling, single point] | – |
| CC(C)NC(=O)CC(=O)N/N=C/c1ccccc1F | – | inconclusive: 6% |
| COc1ccc(NC(=O)Nc2ccc(Br)cn2)cc1 | – | inconclusive: 3.18% |
| O=C1N/C(=C/c2cccn2-c2ccc(F)cc2)C(=O)N1Cc1ccccc1 | – | inconclusive: 20.2% |
| Cc1cccc(C)c1OCC(=O)N1CC2(C)CC1CC(C)(C)C2 (configuration not stated) | – | inconclusive: 12.6% |
| CN(C)c1ccc(NC(=O)CSc2nc3ccccc3c(=O)n2C2CCCCC2)cc1 | – | inconclusive: -1.83% |
| CCN1CCCC1CNC(=O)c1cc2c(=O)n(C)c3ccccc3c2n1C (configuration not stated) | – | inconclusive: -19% |
| COC(=O)c1sc(NC(=O)c2ccc([N+](=O)[O-])o2)c(C#N)c1C | – | inactive: 18.1% |
| Cc1sc(NC(=O)C2CCCC2)c(C#N)c1C | – | inconclusive: 1.94% |
